One molecule from patent US20230357793A1 can be followed below.

Sequences of proteins named here, by UniProt entry; tags and fusion partners are left off. Residues count along the entry.
UniProt Q15116, residues 25-288: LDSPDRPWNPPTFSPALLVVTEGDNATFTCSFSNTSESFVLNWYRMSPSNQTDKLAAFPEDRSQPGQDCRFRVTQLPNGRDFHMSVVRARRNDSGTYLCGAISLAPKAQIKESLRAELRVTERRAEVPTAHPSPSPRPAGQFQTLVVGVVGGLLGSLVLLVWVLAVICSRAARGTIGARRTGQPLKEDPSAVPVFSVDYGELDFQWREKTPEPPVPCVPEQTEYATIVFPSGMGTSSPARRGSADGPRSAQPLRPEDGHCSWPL

These are yes or no findings as the source states them, for the method shown. Some binding calls cover weakened binding; strength is not graded here.

The experiment deals with PD-1 on Jurkat T cells of the PD-1/PD-L1 blockade bioassay (Promega) (UniProt Q15116). Briefly: titration 5 to 0.02 µg/ml in the PD-1/PD-L1 blockade bioassay (reporter cells).

B1: anti-PD-1 IgG antibody BB9 (antibody, V domains shown)
VH: QVQLVQSGAEVKKPGASVKVSCKASGFRLTTNGISWVRQAPGQGLEWMGWISAGGGPTNYAQKLQGRVTMTTDTSTSTAYMELRSLRSDDTAVYYCAKGLYGTKDAWGQGTLVTVSS
VL: QSVLTQPPSVSEVPGQRVTISCSGGGSNIGSNAVNWYQHFPGKAPKLLIYYNDLLPSGVSDRFSASKSGTSASLAISGLRSEDEADYYCAAWDDNLSAYVFATGTKVTVL
As to B1, the binding entry is on record as “binds”.
